Laboratory results: the supplement of paper PMC10849652
The list shows a part of the results.

Sequences of proteins named here, by UniProt entry; tags and fusion partners are left off. A change or cut given only in a name is not applied to a line headed by its entry.
UniProt Q9NVA4: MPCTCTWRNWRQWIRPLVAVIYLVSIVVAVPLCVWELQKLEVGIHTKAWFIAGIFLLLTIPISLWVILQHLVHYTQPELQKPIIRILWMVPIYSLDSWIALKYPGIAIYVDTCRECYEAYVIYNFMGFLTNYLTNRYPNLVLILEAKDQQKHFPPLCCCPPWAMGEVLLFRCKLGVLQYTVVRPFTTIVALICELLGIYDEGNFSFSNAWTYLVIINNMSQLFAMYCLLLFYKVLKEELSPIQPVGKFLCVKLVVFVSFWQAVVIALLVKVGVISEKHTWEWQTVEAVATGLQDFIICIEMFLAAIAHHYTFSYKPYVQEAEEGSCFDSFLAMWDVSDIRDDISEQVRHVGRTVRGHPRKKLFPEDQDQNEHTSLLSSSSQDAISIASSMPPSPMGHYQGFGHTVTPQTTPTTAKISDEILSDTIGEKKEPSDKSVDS
UniProt Q96Q45: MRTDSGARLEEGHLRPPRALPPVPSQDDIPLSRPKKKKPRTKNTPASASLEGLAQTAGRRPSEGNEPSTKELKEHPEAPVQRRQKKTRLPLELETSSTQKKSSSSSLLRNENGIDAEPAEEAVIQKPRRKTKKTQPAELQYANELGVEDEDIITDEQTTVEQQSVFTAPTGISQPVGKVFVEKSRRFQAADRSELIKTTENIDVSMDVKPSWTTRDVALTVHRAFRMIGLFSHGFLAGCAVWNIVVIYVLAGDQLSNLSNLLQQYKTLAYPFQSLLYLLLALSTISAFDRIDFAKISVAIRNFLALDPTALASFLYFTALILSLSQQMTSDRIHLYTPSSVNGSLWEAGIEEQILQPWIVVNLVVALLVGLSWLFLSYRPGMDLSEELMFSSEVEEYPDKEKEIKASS
UniProt Q9NR96: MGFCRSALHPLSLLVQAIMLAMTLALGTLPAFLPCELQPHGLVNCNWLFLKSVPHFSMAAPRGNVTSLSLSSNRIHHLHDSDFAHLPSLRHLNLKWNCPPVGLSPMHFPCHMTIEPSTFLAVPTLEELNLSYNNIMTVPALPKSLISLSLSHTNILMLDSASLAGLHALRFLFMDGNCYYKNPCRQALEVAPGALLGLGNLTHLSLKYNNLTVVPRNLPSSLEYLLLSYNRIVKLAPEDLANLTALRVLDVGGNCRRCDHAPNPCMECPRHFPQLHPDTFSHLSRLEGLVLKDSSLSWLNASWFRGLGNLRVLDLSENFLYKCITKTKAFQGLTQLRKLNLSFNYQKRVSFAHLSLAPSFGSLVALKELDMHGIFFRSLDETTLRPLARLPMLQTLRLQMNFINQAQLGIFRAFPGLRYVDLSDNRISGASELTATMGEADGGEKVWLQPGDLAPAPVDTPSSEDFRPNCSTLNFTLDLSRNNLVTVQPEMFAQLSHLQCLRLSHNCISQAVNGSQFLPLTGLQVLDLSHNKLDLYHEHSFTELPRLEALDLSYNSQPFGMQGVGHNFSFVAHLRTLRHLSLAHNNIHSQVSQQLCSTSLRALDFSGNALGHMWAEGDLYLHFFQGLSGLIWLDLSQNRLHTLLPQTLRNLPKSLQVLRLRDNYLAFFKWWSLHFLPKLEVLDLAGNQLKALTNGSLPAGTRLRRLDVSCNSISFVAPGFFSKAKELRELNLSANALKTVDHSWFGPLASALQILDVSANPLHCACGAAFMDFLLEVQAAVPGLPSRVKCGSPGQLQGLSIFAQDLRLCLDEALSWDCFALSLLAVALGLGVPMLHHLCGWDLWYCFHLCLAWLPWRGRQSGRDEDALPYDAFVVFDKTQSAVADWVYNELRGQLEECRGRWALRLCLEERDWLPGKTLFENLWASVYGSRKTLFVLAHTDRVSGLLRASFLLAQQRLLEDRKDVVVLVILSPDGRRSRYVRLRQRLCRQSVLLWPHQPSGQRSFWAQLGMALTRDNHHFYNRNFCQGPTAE
UniProt P21580: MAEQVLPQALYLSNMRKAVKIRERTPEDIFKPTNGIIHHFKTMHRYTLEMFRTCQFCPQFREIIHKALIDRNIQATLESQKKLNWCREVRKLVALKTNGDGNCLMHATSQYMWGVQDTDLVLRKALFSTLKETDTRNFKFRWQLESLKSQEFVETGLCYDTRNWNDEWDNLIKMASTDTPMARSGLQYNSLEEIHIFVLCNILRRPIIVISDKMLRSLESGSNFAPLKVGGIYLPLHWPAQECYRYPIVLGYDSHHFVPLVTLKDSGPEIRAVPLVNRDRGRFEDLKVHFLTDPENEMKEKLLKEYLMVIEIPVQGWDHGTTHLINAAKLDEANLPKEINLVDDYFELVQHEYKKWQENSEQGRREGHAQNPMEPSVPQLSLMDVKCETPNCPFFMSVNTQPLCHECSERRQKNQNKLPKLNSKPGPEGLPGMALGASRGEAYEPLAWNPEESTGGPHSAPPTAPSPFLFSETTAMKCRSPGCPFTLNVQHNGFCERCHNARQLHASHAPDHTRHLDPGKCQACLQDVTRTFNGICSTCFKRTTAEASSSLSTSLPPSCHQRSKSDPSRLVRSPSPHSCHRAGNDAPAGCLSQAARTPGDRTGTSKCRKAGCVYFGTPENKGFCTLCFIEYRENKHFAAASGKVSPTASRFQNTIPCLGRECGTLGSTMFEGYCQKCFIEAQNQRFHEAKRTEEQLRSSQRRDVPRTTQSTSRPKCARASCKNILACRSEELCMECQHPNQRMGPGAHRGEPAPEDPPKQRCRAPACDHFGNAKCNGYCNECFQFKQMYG
UniProt Q9BVX2: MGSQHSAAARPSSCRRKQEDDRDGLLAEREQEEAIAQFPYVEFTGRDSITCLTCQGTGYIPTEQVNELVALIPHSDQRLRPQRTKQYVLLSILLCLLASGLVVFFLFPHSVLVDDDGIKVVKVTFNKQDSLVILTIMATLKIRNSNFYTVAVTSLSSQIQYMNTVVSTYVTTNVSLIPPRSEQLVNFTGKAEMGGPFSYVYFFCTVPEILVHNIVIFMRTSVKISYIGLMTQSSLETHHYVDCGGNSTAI
UniProt P19438, whole entry, looked up: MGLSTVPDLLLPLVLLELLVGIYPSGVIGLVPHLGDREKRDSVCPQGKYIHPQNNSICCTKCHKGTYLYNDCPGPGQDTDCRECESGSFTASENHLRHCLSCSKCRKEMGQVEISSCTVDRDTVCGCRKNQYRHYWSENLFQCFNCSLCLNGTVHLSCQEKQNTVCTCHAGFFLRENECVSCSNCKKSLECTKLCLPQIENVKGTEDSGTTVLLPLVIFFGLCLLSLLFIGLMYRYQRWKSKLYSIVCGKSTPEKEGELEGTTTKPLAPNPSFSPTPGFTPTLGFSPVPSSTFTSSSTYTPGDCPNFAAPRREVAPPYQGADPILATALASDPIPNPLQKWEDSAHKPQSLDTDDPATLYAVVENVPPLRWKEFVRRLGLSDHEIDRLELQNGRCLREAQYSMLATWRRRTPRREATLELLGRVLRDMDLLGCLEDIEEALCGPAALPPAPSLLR
UniProt O95807: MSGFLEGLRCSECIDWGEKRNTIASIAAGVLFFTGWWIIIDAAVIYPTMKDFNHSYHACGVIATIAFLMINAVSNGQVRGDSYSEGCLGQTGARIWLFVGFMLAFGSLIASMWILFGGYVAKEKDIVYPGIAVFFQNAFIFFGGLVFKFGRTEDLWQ
UniProt Q9Y519: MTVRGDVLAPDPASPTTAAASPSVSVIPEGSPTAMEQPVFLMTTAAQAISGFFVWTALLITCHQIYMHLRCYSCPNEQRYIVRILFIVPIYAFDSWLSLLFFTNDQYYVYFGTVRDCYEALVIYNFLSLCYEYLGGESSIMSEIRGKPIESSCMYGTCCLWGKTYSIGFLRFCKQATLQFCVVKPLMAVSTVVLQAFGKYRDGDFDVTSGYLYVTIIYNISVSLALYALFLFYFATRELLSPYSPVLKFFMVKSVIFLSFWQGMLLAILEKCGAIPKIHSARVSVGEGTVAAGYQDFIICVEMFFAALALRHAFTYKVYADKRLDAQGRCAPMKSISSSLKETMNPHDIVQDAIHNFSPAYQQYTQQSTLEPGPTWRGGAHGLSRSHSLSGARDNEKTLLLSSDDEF
UniProt Q86XT9, whole entry, looked up: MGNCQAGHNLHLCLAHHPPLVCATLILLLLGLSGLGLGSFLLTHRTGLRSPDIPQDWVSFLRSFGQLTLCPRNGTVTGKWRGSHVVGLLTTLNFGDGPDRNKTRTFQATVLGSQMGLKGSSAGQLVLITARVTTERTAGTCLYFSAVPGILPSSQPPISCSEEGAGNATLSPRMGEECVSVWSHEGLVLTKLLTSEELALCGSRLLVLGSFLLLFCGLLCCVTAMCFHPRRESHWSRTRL
UniProt Q9BVK8: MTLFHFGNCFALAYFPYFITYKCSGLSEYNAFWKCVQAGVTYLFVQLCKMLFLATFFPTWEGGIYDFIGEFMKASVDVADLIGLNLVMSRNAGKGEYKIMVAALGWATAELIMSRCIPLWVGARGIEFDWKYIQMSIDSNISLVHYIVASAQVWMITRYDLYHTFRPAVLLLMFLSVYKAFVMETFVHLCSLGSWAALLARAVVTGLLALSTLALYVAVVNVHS
UniProt Q9BXS4: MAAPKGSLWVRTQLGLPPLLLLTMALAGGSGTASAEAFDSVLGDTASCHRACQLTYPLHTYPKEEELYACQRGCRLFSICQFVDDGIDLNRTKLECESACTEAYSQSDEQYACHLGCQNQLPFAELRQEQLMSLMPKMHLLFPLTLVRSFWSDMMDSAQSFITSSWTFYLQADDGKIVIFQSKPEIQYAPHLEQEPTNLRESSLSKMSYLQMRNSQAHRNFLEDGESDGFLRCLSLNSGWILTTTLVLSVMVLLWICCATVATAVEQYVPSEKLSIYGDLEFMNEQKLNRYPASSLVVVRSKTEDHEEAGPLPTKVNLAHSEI
UniProt Q9BZW5, whole entry, looked up: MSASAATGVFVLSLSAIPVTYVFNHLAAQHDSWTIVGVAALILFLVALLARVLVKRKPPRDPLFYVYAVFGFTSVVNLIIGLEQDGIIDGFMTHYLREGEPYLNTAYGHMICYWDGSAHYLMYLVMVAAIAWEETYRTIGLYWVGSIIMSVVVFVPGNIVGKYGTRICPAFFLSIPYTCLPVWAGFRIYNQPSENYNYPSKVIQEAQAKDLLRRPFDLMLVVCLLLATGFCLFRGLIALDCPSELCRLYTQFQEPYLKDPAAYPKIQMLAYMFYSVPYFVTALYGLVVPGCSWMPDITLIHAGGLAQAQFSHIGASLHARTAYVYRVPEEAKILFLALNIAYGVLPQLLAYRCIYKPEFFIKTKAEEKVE
UniProt O75204: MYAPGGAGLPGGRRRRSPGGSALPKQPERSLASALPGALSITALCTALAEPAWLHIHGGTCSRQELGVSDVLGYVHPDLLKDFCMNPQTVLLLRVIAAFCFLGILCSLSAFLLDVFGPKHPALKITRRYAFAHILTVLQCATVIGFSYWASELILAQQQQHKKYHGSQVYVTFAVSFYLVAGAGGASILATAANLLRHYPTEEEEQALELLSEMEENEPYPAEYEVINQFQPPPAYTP
UniProt Q5SNT2: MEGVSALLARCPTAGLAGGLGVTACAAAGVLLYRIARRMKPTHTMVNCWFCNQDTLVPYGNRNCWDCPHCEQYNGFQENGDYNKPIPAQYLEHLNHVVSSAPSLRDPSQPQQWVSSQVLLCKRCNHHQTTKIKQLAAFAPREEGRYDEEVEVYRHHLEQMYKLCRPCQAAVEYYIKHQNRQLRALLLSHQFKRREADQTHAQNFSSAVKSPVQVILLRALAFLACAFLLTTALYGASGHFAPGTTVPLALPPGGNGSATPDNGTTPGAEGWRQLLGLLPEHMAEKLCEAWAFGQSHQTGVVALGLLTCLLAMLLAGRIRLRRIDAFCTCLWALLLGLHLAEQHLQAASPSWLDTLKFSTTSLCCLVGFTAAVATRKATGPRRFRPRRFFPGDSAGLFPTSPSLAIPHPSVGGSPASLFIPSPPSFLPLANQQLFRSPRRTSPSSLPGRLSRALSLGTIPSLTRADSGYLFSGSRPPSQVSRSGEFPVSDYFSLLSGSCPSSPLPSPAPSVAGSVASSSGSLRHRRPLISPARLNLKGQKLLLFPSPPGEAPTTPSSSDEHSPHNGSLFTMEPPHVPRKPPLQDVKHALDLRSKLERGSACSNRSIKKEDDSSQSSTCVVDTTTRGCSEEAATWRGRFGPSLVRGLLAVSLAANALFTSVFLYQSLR
UniProt Q96B96: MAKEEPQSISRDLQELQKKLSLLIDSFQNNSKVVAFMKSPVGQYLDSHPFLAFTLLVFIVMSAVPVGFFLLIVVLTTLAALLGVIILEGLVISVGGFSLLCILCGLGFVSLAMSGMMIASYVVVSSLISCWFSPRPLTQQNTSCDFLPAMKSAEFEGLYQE
UniProt Q9BRR3: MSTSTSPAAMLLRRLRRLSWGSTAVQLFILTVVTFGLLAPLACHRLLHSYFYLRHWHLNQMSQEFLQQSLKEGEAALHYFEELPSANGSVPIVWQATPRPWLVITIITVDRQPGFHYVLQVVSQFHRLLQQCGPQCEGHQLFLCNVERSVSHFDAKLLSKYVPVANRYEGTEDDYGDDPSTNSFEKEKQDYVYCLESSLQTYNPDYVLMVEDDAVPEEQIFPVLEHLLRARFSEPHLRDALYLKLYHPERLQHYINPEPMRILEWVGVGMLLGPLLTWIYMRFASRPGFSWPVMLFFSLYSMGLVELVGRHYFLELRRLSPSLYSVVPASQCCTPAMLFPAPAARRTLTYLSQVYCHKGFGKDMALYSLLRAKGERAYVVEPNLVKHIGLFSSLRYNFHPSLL

compound: CC[C@@H]1C(=O)N(C)c2cnc(Nc3ccc(C(=O)NC4CCN(C)CC4)cc3OC)nc2N1C1CCCC1; test: log2 fold change, soluble protein after heating vs DMSO (PISA); higher = thermal stabilisation; K562 cells, 10 uM, 30 min; active = over 0.2 and 3.5 SD of the protein, either way, in both replicates (recomputed)
Procedure, shortened: (§1)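 Thermal stability values are relative to control samples and come from duplicates. They are expressed as log2 fold changes. For measurement, K562 cells (2×10^6 cells/mL) received 10 μM compound for 30 min, and aliquots were heated for 3 min over 48°C-58°C, pooled, and extracted at 4°C in PBS with 0.5% NP-40. Soluble protein, the supernatant after 21,000xg for 90 min, was quantified by TMTpro 16plex LC-MS/MS with equalised channel sums.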

With TMEM184C (UniProt Q9NVA4) as the target, how does the log2 fold change read?
The log2 fold change was inactive: -0.03.

With TMEM237 isoform 3 (UniProt Q96Q45) as the target, how does the log2 fold change read?
The log2 fold change was inactive: 0.144.

With TMCC3 (UniProt Q9ULS5) as the target, how does the log2 fold change read?
The log2 fold change was inactive: 0.119.

How did the log2 fold change turn out when TMEM143 (UniProt Q96AN5) was run?
The log2 fold change was inactive: -0.05.

How did the log2 fold change turn out when TLR9 isoform 4 (UniProt Q9NR96) was run?
The log2 fold change was inactive: -0.055.

compound: CC[C@@H]1C(=O)N(C)c2cnc(Nc3ccc(C(=O)N[C@H]4CC[C@H](N5CCN(CC6CC6)CC5)CC4)cc3OC)nc2N1C(C)C [volasertib]; test: as above
Procedure, shortened: as §1

For TMEM129, which log2 fold change is on record?
Its log2 fold change is inactive: -0.137.

With TNFAIP3 (UniProt P21580) as the target, how does the log2 fold change read?
The log2 fold change was inactive: -0.045.

With TMEM106C (UniProt Q9BVX2) as the target, how does the log2 fold change read?
The log2 fold change was inactive: -0.05.

TNFRSF1A (UniProt P19438) was tested. Which log2 fold change did it give?
The log2 fold change was inactive: 0.103.

How did the log2 fold change turn out when TMEM50A (UniProt O95807) was run?
The log2 fold change was inactive: 0.01.

TM7SF2 (UniProt O76062) was tested. Which log2 fold change did it give?
The log2 fold change was active: 0.907.

For TMEM184B (UniProt Q9Y519), which log2 fold change is on record?
Its log2 fold change is inactive: 0.017.

TMEM219 (UniProt Q86XT9) was tested. Which log2 fold change did it give?
The log2 fold change was inactive: -0.111.

How did the log2 fold change turn out when TMEM98 (UniProt Q9Y2Y6) was run?
Its log2 fold change is inactive: -0.226.

For TMEM147 (UniProt Q9BVK8), which log2 fold change is on record?
Its log2 fold change is inactive: -0.103.

Which log2 fold change does the source give for TMEM59 (UniProt Q9BXS4) here?
The log2 fold change was inactive: -0.107.

With TM6SF1 (UniProt Q9BZW5) as the target, how does the log2 fold change read?
The log2 fold change was inactive: 0.052.

compound: CC[C@H](C)N1C=C(C2=C(C=C(C=C21)C3=CN=C(C=C3)N4CCNCC4)C(=O)NCC5=C(C=C(NC5=O)C)C)C; test: as above
Procedure, shortened: as §1

Which log2 fold change does the source give for TMEM129 here?
Its log2 fold change is inactive: 0.074.

With TNFAIP3 (UniProt P21580) as the target, how does the log2 fold change read?
The log2 fold change was inactive: 0.047.

For TMEM44 (UniProt Q2T9K0), which log2 fold change is on record?
The log2 fold change was inactive: 0.192.

TMEM106C (UniProt Q9BVX2) was tested. Which log2 fold change did it give?
The log2 fold change was inactive: 0.149.

TMEM127 (UniProt O75204) was tested. Which log2 fold change did it give?
The log2 fold change was inactive: -0.157.

Which log2 fold change does the source give for TMEM35B (UniProt Q8NCS4) here?
Its log2 fold change is inactive: -0.065.

Which log2 fold change does the source give for TMEM50A (UniProt O95807) here?
The log2 fold change was inactive: -0.294.

How did the log2 fold change turn out when TMEM184C (UniProt Q9NVA4) was run?
The log2 fold change was inactive: 0.033.

Which log2 fold change does the source give for TM7SF2 (UniProt O76062) here?
Its log2 fold change is inactive: -0.022.

TMCC2 (UniProt O75069) was tested. Which log2 fold change did it give?
Its log2 fold change is inactive: 0.149.

How did the log2 fold change turn out when TMEM184B (UniProt Q9Y519) was run?
The log2 fold change was inactive: -0.074.

How did the log2 fold change turn out when TMCC3 (UniProt Q9ULS5) was run?
The log2 fold change was inactive: 0.004.

For TMEM219 (UniProt Q86XT9), which log2 fold change is on record?
The log2 fold change was inactive: 0.033.

How did the log2 fold change turn out when TMEM79 (UniProt Q9BSE2) was run?
Its log2 fold change is inactive: -0.09.

For TMEM273 isoform 2 (UniProt Q5T292), which log2 fold change is on record?
Its log2 fold change is inactive: -0.085.

Which log2 fold change does the source give for TMEM98 (UniProt Q9Y2Y6) here?
Its log2 fold change is inactive: -0.128.

TMEM120B (UniProt A0PK00) was tested. Which log2 fold change did it give?
Its log2 fold change is inactive: 0.202.

For TMEM147 (UniProt Q9BVK8), which log2 fold change is on record?
Its log2 fold change is inactive: -0.033.

Which log2 fold change does the source give for TMEM59 (UniProt Q9BXS4) here?
The log2 fold change was inactive: -0.029.

How did the log2 fold change turn out when TNFAIP2 (UniProt Q03169) was run?
The log2 fold change was inactive: -0.485.

For TMEM201 (UniProt Q5SNT2), which log2 fold change is on record?
The log2 fold change was inactive: 0.061.

For TM6SF1 (UniProt Q9BZW5), which log2 fold change is on record?
Its log2 fold change is inactive: -0.046.

For TLR9 isoform 4 (UniProt Q9NR96), which log2 fold change is on record?
The log2 fold change was inactive: 0.048.

TMEM159 isoform 2 (UniProt Q96B96) was tested. Which log2 fold change did it give?
Its log2 fold change is inactive: -0.318.

compound: CC[C@H](C)[C@@H](C(=O)N[C@@H]([C@@H](C)O)C(=O)N[C@@H](CC(C)C)C(=O)[C@]1(CO1)C)NC(=O)[C@H]([C@@H](C)CC)N(C)C(=O)C [epoxomicin]; test: as above
Procedure, shortened: as §1

With TNFAIP3 (UniProt P21580) as the target, how does the log2 fold change read?
The log2 fold change was inactive: -0.081.

With TNFRSF1A (UniProt P19438) as the target, how does the log2 fold change read?
The log2 fold change was inactive: 0.023.

How did the log2 fold change turn out when TMEM50A (UniProt O95807) was run?
Its log2 fold change is inactive: 0.161.

For TMEM184C (UniProt Q9NVA4), which log2 fold change is on record?
The log2 fold change was inactive: 0.087.

For TMCO3 (UniProt Q6UWJ1), which log2 fold change is on record?
Its log2 fold change is inactive: 0.

TMEM237 isoform 3 (UniProt Q96Q45) was tested. Which log2 fold change did it give?
Its log2 fold change is inactive: -0.105.

For TMEM219 (UniProt Q86XT9), which log2 fold change is on record?
Its log2 fold change is inactive: 0.035.

For TMEM134 (UniProt Q9H6X4), which log2 fold change is on record?
The log2 fold change was inactive: -0.062.

How did the log2 fold change turn out when TMEM147 (UniProt Q9BVK8) was run?
The log2 fold change was inactive: -0.118.

Which log2 fold change does the source give for TMEM201 (UniProt Q5SNT2) here?
Its log2 fold change is inactive: 0.002.

How did the log2 fold change turn out when TM6SF1 (UniProt Q9BZW5) was run?
Its log2 fold change is inactive: 0.052.

How did the log2 fold change turn out when TMCC1 (UniProt O94876) was run?
Its log2 fold change is inactive: 0.

Which log2 fold change does the source give for TLR9 isoform 4 (UniProt Q9NR96) here?
Its log2 fold change is inactive: 0.046.

Which log2 fold change does the source give for TMEM159 isoform 2 (UniProt Q96B96) here?
The log2 fold change was inactive: -0.088.

compound: CCn1c(C(=O)N(C2CC2)C2CC2)cc2c3c(ncn3C)c(Nc3cc(C)n(C)n3)nc21; test: as above
Procedure, shortened: as §1

Which log2 fold change does the source give for TMPO (UniProt G5E972) here?
The log2 fold change was inactive: -0.053.

For TNFAIP3 (UniProt P21580), which log2 fold change is on record?
Its log2 fold change is inactive: 0.022.

How did the log2 fold change turn out when TMEM44 (UniProt Q2T9K0) was run?
The log2 fold change was inactive: 0.003.

How did the log2 fold change turn out when TMEM106C (UniProt Q9BVX2) was run?
Its log2 fold change is inactive: 0.17.

For TNFRSF1A (UniProt P19438), which log2 fold change is on record?
The log2 fold change was inactive: 0.014.

For TMEM127 (UniProt O75204), which log2 fold change is on record?
The log2 fold change was inactive: 0.077.

With TMEM35B (UniProt Q8NCS4) as the target, how does the log2 fold change read?
Its log2 fold change is inactive: -0.168.

With TMCO6 isoform 2 (UniProt Q96DC7) as the target, how does the log2 fold change read?
Its log2 fold change is inactive: -0.309.

TMEM246 (UniProt Q9BRR3) was tested. Which log2 fold change did it give?
The log2 fold change was inactive: 0.126.

Which log2 fold change does the source give for TMEM237 isoform 3 (UniProt Q96Q45) here?
Its log2 fold change is inactive: 0.019.

TMEM184B (UniProt Q9Y519) was tested. Which log2 fold change did it give?
The log2 fold change was inactive: 0.015.

How did the log2 fold change turn out when TMEM94 isoform 2 (UniProt Q12767) was run?
Its log2 fold change is inactive: -0.277.

With TMEM134 (UniProt Q9H6X4) as the target, how does the log2 fold change read?
Its log2 fold change is inactive: -0.042.

For TMEM143 (UniProt Q96AN5), which log2 fold change is on record?
Its log2 fold change is inactive: 0.079.

For TMEM120B (UniProt A0PK00), which log2 fold change is on record?
The log2 fold change was inactive: 0.138.

How did the log2 fold change turn out when TMEM147 (UniProt Q9BVK8) was run?
The log2 fold change was inactive: -0.039.

How did the log2 fold change turn out when TMEM59 (UniProt Q9BXS4) was run?
The log2 fold change was inactive: 0.

How did the log2 fold change turn out when TNFAIP2 (UniProt Q03169) was run?
Its log2 fold change is inactive: -0.186.

With TMEM201 (UniProt Q5SNT2) as the target, how does the log2 fold change read?
Its log2 fold change is inactive: -0.073.

For TM6SF1 (UniProt Q9BZW5), which log2 fold change is on record?
The log2 fold change was inactive: 0.013.

How did the log2 fold change turn out when TMEM260 (UniProt Q9NX78) was run?
Its log2 fold change is inactive: -0.189.

For TLR9 isoform 4 (UniProt Q9NR96), which log2 fold change is on record?
The log2 fold change was inactive: -0.019.

How did the log2 fold change turn out when TMEM131 (UniProt Q92545) was run?
Its log2 fold change is inactive: -0.109.

Which log2 fold change does the source give for TMEM159 isoform 2 (UniProt Q96B96) here?
The log2 fold change was inactive: 0.005.

How did the log2 fold change turn out when TMEM256 (UniProt Q8N2U0) was run?
The log2 fold change was inactive: -0.026.
